Experimental findings from patent publication US20220175729A1, “PHARMACEUTICAL USE OF CHLOROPHYLLIDE FOR CANCER THERAPY” (I-SHOU UNIVERSITY, priority 2020, published 2022) are described below.

The amount applied is not stated for every result.

The data set deals with MDA-MB-231 breast cancer cells. Briefly: Differential gene expression analysis by NGS, MDA-MB-231. To be noted: treated versus untreated MDA-MB-231; FIG. 7. The data set is classed as cell-based, human.

With chlorophyllide, the “number of differentially expressed genes” value is 77, the “number of negative regulated genes” value is 21 and the “number of positive regulated genes” value is 56.
